Experimental data from PMC10550997.
No constants are given. Whether binding was seen depends on the method and setting. Binding seen in cells or lysates may run through a third protein. Some entries that bind do so weakly or less than the wild type.

By UniProt entry, the sequences of proteins in these tests, tags left out.
UniProt P09542: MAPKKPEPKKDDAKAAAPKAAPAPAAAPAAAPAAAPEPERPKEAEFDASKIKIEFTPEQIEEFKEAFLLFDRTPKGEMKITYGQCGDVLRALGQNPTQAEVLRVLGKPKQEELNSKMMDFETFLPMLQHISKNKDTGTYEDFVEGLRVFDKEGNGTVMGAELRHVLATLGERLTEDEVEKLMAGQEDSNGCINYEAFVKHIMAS
UniProt Q64331: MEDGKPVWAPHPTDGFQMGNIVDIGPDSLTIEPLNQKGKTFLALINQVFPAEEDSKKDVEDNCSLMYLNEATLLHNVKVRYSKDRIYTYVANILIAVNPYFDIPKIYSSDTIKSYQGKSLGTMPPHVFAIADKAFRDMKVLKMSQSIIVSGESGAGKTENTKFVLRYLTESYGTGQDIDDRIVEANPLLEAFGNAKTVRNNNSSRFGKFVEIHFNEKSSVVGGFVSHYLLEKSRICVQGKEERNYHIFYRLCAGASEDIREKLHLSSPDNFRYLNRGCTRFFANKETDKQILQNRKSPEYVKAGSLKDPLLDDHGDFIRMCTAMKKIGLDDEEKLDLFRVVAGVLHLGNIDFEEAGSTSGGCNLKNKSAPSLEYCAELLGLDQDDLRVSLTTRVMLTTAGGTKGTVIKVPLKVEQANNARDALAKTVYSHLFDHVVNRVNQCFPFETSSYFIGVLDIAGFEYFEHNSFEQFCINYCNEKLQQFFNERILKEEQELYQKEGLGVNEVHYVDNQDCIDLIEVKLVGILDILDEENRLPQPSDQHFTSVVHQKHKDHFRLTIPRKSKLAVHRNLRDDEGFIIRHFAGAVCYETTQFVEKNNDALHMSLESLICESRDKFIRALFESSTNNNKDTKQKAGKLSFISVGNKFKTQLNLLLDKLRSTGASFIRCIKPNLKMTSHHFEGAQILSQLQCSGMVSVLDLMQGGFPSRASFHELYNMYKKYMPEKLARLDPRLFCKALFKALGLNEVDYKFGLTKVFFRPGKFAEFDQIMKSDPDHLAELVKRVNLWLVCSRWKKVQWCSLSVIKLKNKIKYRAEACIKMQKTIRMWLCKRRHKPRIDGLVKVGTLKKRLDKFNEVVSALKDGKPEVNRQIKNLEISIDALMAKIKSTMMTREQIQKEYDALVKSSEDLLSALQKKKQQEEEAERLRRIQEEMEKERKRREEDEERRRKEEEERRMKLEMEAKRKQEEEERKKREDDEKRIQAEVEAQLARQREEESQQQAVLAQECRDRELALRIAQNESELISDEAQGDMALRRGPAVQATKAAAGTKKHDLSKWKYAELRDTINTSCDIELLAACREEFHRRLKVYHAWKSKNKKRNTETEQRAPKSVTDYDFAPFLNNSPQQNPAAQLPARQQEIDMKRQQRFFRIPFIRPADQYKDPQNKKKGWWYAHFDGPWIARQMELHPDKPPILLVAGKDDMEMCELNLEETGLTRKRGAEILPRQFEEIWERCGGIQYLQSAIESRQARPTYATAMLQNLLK

Target: myosin light chain 3 (mouse (endogenous in mouse primary chondrocytes)) (UniProt P09542)
Experiment: co-IP; endogenous proteins from mouse primary chondrocyte lysates (40 mM HEPES pH 7.4, 2 mM EDTA, 0.3% CHAPS); primary antibody overnight at 4 °C, Protein A + G Sepharose, three washes, immunoblot; control IgG; cells also treated with H2O2 or transfected with control, Myl3-KD or Myl3-OE

binding: binds
Substance: myosin VI (from UniProt Q64331 1-1262)
